# Assay results from PMC5506036, “SmMYB36, a Novel R2R3-MYB Transcription Factor, Enhances Tanshinone Accumulation and Decreases Phenolic Acid Content in Salvia miltiorrhiza Hairy Roots”.
# Biological target: T1, SmMYB36 (Salvia miltiorrhiza) (UniProt A0A059PRJ2)
# T1 sequence (looked up, limits assumed): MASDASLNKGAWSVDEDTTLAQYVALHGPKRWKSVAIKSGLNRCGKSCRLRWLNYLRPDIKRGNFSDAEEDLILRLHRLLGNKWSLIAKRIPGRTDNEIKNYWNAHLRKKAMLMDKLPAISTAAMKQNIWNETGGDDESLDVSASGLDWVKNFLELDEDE
# Test: EMSA
# Details: Invitrogen EMSA kit, probe:protein mass ratio 1:15, 10 µL, protein eluted in 50 mM NaH2PO4, 300 mM NaCl, 250 mM imidazole pH 8.0, binding buffer and temperature not given, recombinant protein, protein details: His (pET32a fusion)
Sequence,binding result (letters put together from the description),binding result
AGAAAGC (double strand) [7CK control],no binding,
AGTTTTCTTGAA (double strand) [12CK control],,no binding

# For at least one entry, the source does not settle the construct or the ends of the probe. No signal at the amounts used counts as a negative. At least one verdict rests on a figure or table, not on a statement of the authors. Where a protein sequence is shown, tags need not be part of it.
